# According to patent US20040259122A1:
# No constants are given. Whether binding was seen depends on the method and setting. In cells and extracts the contact can be indirect. Some results given as binding are weak or reduced against the parent protein; the word gives no strength.
# Legend:
# [1] = target: GST-p53 fusion protein treated with PCAF for Lys320 acetylation (UniProt P04637); assay: GST pull-down (FIG. 29)
# [2] = target: GST-p53 fusion protein treated with PCAF for Lys320 acetylation (UniProt P04637); assay: GST pull-down on glutathione beads, 35S-labelled in vitro translated protein, SDS-PAGE and fluorography
substance,measurement,setting,value
"35S-labelled, in vitro translated PIASxα (from UniProt O75928 1-572)",binding,[1],binds
same,binding,[2],binds
